Measured values: PubChem BioAssay AID2685 (National Center for Advancing Translational Sciences (NCATS), 2010)
The other results are listed elsewhere or left out. Shown are side measurements of this screen, not its main read-out; they come without a call. Most of these compounds were active or inconclusive in the main read-out, so they are no random draw. Words in brackets tell the shape of the fitted curve; partial curves, single points and poor fits give uncertain potencies.

Assay: qHTS Assay for Lipid Storage Modulators in Drosophila S3 Cells;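 for cell number change: cells counted by Cell Tracker Red CMTPX staining in the red channel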
Settings: BODIPY lipid droplet fluorescence, 18-24 h; for cell number change: measured here: cell count max response, cells fed with added oleic acid
Summary of the method: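 Drosophila S3 cells loaded with oleic acid (400 uM, as added) and compounds at several concentrations; lipid droplets imaged by 488-nm laser-scanning cytometry, 500–530 nm intensity and object ratio to cell channel. Percent activity normalized to 20 uM Triacsin C.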

[1] = measured here: lipid fluorescence (Fed channel) AC50, cells fed with added oleic acid
[2] = measured here: cell number channel AC50, cells fed with added oleic acid

| SMILES | cell number change | AC50 [1] | AC50 [2] |
| --- | --- | --- | --- |
| O=c1oc(-c2ccccc2)nc2sc3c(c12)CCC3 | 19.6% | 9.2 µM [rising, partial curve] | – |
| COc1ccc(OC)c(S(=O)(=O)N2CCN(c3ccccc3)CC2)c1 | 12.7% | 3.66 µM [rising, full curve, poor fit] | – |
| COc1ccc2nc(N=NC3=C(O)CC(C)(C)CC3=O)sc2c1 | -45.8% | 1.46 µM [falling, partial curve] | 0.058 µM [falling, full curve, poor fit] |
| O=C(CCN1C(=O)c2ccccc2C1=O)N(CCO)Cc1ccccc1 | 10.7% | – | – |
| COc1ccc(S(=O)(=O)Nc2ccccc2C(=O)NCc2cccnc2)cc1C | 3.81% | – | – |
| CN1CCC(N(C)C(=O)c2ccccc2F)CC1 | -7.92% | 1.64 µM [falling, partial curve] | – |
| COc1ccccc1OCC(=O)NCC1CCCCC1 | – | – | 3.66 µM [rising, single point] |
| COc1ccc(NS(=O)(=O)c2cccc(C(=O)NNC(=O)c3ccc(C)o3)c2)cc1 | 13.6% | 1.03 µM [rising, full curve, poor fit] | 6.51 µM [falling, single point] |
| CCCCC[n+]1ccn(-c2nc3ccccc3nc2[N-]S(=O)(=O)c2ccccc2)c1 | -2.67% | 1.84 µM [rising, partial curve, poor fit] | – |
| Cc1ccc2[nH]c(C(=O)O)c(-c3ccccc3)c2c1 | -5.75% | 13 µM [falling, partial curve, poor fit] | – |
| Cc1cc(C)c(S(=O)(=O)NC2CC3CCC2C3)c(C)c1 (centres undefined) | -21.5% | 29.1 µM [falling, single point] | – |
| Cc1ccccc1CC(=O)Nc1cccc(S(=O)(=O)N2CCCC2)c1 | -14.1% | 5.17 µM [falling, partial curve] | – |
| O=C(CSCc1c(Cl)cccc1Cl)Nc1ccccc1C(=O)N1CCOCC1 | -19.1% | 2.31 µM [rising, partial curve] | – |
| C/C(N)=C(/C#N)C(=O)CSc1nc2ccc(C)cc2[nH]1 | 10.6% | – | 0.366 µM [rising, single point] |
| CC(CNCc1ccc2c(c1)OCO2)NCc1ccc2c(c1)OCO2 (centres undefined) | 6.42% | 0.146 µM [falling, full curve, poor fit] | – |
| COCCOC(=O)C1=C(C)N=C2SCCC(=O)N2C1c1ccc(OC(=O)c2ccco2)cc1 (centres undefined) | 16.4% | – | – |
| COc1ccc(CNc2nccs2)cc1 | 3.3% | 29.1 µM [rising, single point] | – |
| O=C(Nc1ccccc1)N1CCN(Cc2ccc(Cl)cc2)CC1 | 5.73% | – | – |
| c1ccc(CCN(Cc2ccccc2)C2CCN(C3CCCC3)CC2)cc1 | -31.5% | 1.64 µM [falling, partial curve] | 32.6 µM [falling, single point] |
| O=[N+]([O-])c1ccc(N2CCN(Cc3ccc(Br)o3)CC2)cc1 | – | 20.6 µM [falling, single point] | – |
| Cc1ccc(C)c(Cn2c3ccccc3c3cnn(CC(=O)NCCN4CCOCC4)c(=O)c32)c1 | -27.5% | 16.4 µM [falling, partial curve, poor fit] | – |

| SMILES | cell number change | AC50 [1] | AC50 [2] |
| --- | --- | --- | --- |
| Cc1ccc(NC(=O)C(=O)NCc2ccccn2)cc1 | – | 1.46 µM [rising, partial curve] | – |
| O=C(Cn1nc(C(F)F)cc1C(F)F)N/N=C/c1ccc2c(c1)OCO2 | 134% | – | 29.1 µM [rising, single point] |
| CCOc1cc2[nH]c(=S)n(Cc3ccc(C)o3)c(=O)c2cc1OCC | -169% | – | – |
| Cc1ccc(S(=O)(=O)N2CCCCC2)cc1C(=O)Nc1ccc2cn[nH]c2c1 | -18.6% | 0.0092 µM [rising, full curve, poor fit] | – |
| CCSCc1nnc(SCC(=O)Nc2nc(C)cs2)n1C | 20.6% | – | – |
| CCCc1cc(=O)oc2c(C)c(OCC(=O)N3CCC(C(=O)O)(c4ccccc4)CC3)ccc12 | 12.3% | – | – |
| CNc1ccc(/C=C(\C#N)C(=O)Nc2ccccn2)cc1[N+](=O)[O-] | 30.7% | – | 7.31 µM [rising, partial curve] |
| Cc1ccc(-c2nnc(-c3ccc(NC(=O)c4ccco4)cc3)o2)cc1 | – | – | 6.51 µM [falling, single point] |
| COc1cccc(CN(CC(=O)NCc2ccccc2)C(=O)c2csnn2)c1 | – | 0.00517 µM [falling, full curve, poor fit] | – |
| Cc1ccc2ncccc2c1NS(=O)(=O)c1ccccc1 | -38.3% | – | 1.84 µM [falling, full curve, poor fit] |
| CSCC[C@H](NC(=O)OC(C)(C)C)C(=O)N1CCC(C(=O)N[C@@H](C)C(=O)O)CC1 | 26.2% | 18.4 µM [falling, partial curve] | 0.92 µM [rising, full curve, poor fit] |
| O=C(NCc1ccc(F)cc1)C(Cc1ccccc1)NS(=O)(=O)c1cccs1 (centres undefined) | 54.2% | 0.206 µM [falling, full curve, poor fit] | 16.4 µM [rising, single point] |
| O=C(/C=C/c1ccccc1)Nc1nnc(-c2ccco2)o1 | 8.68% | 1.16 µM [falling, single point] | – |
| CC(C)C(=O)Nc1ccc2c(c1)nc(CCN1CCN(c3ccccn3)CC1)n2C | 38.3% | – | 2.06 µM [rising, partial curve, poor fit] |
| O=C(c1cc2ccccc2o1)c1cccs1 | -9.78% | 29.1 µM [falling, single point] | – |
| CCOC(=O)CC(NS(=O)(=O)c1ccc2[nH]c(=O)sc2c1)c1ccc(C)cc1 (centres undefined) | 14.8% | 8.2 µM [falling, single point] | – |
| CC(=O)c1ccc(OC(C)C)c(CC(C(N)=O)C(N)=O)c1 | – | 23.1 µM [falling, partial curve] | – |
| CC(C)CC(=O)NNC(=S)Nc1ccc(S(N)(=O)=O)cc1 | -49.6% | 29.1 µM [falling, single point] | 29.1 µM [falling, single point] |
| CCOC(=O)N1CCN(C(=O)c2ccc3c(=O)n(CCc4ccc(OC)c(OC)c4)c(=O)[nH]c3c2)CC1 | – | 1.46 µM [falling, full curve] | – |
| CC(Nc1nc(Nc2ccc(F)cc2)nc(SCC(N)=O)n1)c1ccccc1 (centres undefined) | -39.8% | 0.651 µM [rising, single point] | 20.6 µM [falling, single point] |
| O=C(CSc1ncccc1C(=O)O)c1ccc2ccccc2c1 | -13.2% | – | – |

Structural class, the entries above containing a cyano group

| SMILES | cell number change | AC50 [1] | AC50 [2] |
| --- | --- | --- | --- |
| C/C(N)=C(/C#N)C(=O)CSc1nc2ccc(C)cc2[nH]1 | 10.6% | – | 0.366 µM [rising, single point] |
| CNc1ccc(/C=C(\C#N)C(=O)Nc2ccccn2)cc1[N+](=O)[O-] | 30.7% | – | 7.31 µM [rising, partial curve] |

Continued:

| SMILES | cell number change | AC50 [1] | AC50 [2] |
| --- | --- | --- | --- |
| O=C(COC(=O)c1ccccc1C(=O)c1ccc(Cl)cc1)NCC1CCCO1 (centres undefined) | 46% | – | – |
| CCCCCCn1cnc2c(c1=O)c1nc3ccccc3nc1n2/N=C/c1ccco1 | 5.59% | – | – |
| Cc1ccc(CCNC(=O)C2CC(=O)N(CCc3ccccc3)C2)cc1 (centres undefined) | 35.7% | 29.1 µM [rising, single point] | 0.731 µM [rising, partial curve, poor fit] |
| CC1CN(C(=O)CN2C(=O)NC(C)(c3ccccc3)C2=O)CC(C)O1 (centres undefined) | -18.2% | 3.66 µM [falling, full curve, poor fit] | – |
| COc1ccc(S(=O)(=O)NC(C)C(=O)O)cc1 (centres undefined) | -100% | 1.16 µM [falling, full curve] | 23.1 µM [falling, partial curve] |
| CCOC(=O)c1ccc(N2C(=O)CC(N3CCN(C(=O)c4ccco4)CC3)C2=O)cc1 (centres undefined) | 8.59% | 3.66 µM [falling, full curve] | – |
| CC(Cl)C(=O)Nc1c2c(nn1-c1ccccc1)CSC2 (centres undefined) | 21.4% | 29.1 µM [rising, single point] | – |
| O=C(c1ccco1)N1CCN(CCOc2ccc(F)cc2)CC1 | – | 29.1 µM [falling, single point] | 2.06 µM [rising, partial curve, poor fit] |
| Clc1ccc(Cl)c(OCCCCN2CCNCC2)c1 | 5.25% | 29.1 µM [rising, single point] | – |
| Cc1ccnc(NS(=O)(=O)c2ccccc2)n1 | -14.3% | 1.3 µM [falling, full curve, poor fit] | – |
| O=C(CCc1nc2ccccc2s1)c1ccccc1 | -73.2% | – | 16.4 µM [falling, single point] |
| COc1ccc(CNC(=O)COC(=O)/C=C/c2cccc(Br)c2)cc1OC | -44.7% | – | 0.92 µM [falling, full curve] |
| Cc1ccc(-c2cn(S(=O)(=O)c3ccc(C)cc3)nc2N)cc1 | – | 2.31 µM [rising, partial curve] | 1.84 µM [rising, partial curve, poor fit] |
| O=C(COc1ccccc1)Nc1ccncc1 | -3.22% | 6.51 µM [falling, single point] | – |
| CCc1nn(CCCC(=O)N2CCN(c3ccc(OC)cc3)CC2)c(=O)c2cc3occc3n12 | – | 2.31 µM [rising, partial curve] | – |
| O=C(C[n+]1ccc(C(=O)N/N=C/c2ccc(Cl)cc2Cl)cc1)c1ccccc1 | 117% | 1.84 µM [rising, partial curve] | 6.51 µM [rising, partial curve] |
| Cc1ccnc(NC(=O)CCCc2c[nH]c3ccccc23)c1 | 2.42% | – | – |
| Cc1nnc(SCC(=O)Nc2ccccc2NC(=O)CSc2nnc(C)s2)s1 | -1.85% | 0.411 µM [rising, partial curve, poor fit] | – |
| O=C(Cc1ccsc1)NNC(=O)c1ccccc1Cl | -10% | – | – |
| CCOc1ccc(C(=O)Nc2ccc(NC(=O)c3ccco3)c(Cl)c2)cc1Cl | – | 0.164 µM [rising, full curve, poor fit] | 0.92 µM [rising, partial curve] |

Gathered by group: those above with a nitro group on carbon

| SMILES | cell number change | AC50 [1] | AC50 [2] |
| --- | --- | --- | --- |
| O=[N+]([O-])c1ccc(N2CCN(Cc3ccc(Br)o3)CC2)cc1 | – | 20.6 µM [falling, single point] | – |
| CNc1ccc(/C=C(\C#N)C(=O)Nc2ccccn2)cc1[N+](=O)[O-] | 30.7% | – | 7.31 µM [rising, partial curve] |
